# In patent US20110206704A1, “Methods and compositions for modulating hepatocyte growth factor activator” (Genentech, Inc., priority 2009, published 2011):
# These are yes or no findings as the source states them, for the method shown. Some results given as binding are weak or reduced against the parent protein; the word gives no strength. Tags and fused reporters may be left off the sequences shown.
# T1: HGFA (Val373-Ser655 plus tag …) (human, UniProt Q04756 373-655)
# T1 sequence: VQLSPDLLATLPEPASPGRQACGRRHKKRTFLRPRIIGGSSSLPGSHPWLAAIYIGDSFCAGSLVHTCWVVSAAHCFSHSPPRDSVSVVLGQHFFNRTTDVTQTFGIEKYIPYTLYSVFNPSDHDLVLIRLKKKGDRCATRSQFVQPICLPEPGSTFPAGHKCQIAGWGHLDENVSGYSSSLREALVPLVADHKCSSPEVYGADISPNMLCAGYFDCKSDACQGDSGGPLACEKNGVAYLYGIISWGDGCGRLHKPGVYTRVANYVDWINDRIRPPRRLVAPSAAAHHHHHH
# Molecular target: T1, HGFA (Val373-Ser655 plus tag …)
# Experiment: SPR (BIAcore) competition: HGFA with KD1 at 0, 2.5 or 10 nM injected over immobilized Ab40 (competitor: Ab40)
binder,measurement,value
"KD1 (Kunitz domain-1 of HGFA inhibitor-1) (protein, UniProt O43278 246-303, looked up, biotinylated in the competition ELISA) TEDYCLASNKVGRCRGSFPRWYYDPTEQICKSFVYGGCLGNKNNYLREEECILACRGV",binding,binds
